PubChem BioAssay AID504744, Drosophila RNAi Screening Center, 2011
In all, the deposit lists about 23,000 reagents; this is a random part of those with a known target gene and a result. In the full data, 98 (0.43%) got an active call. 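Only hit calls are given; the phospho-dAkt signals, z-scores and hit direction were not deposited.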 Reagents against one gene are numbered here. Names joined by + are all predicted targets of the reagent.

Screen: 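Find genes whose loss alters insulin-driven dAkt phosphorylation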 (primary screen)
Cell system: Drosophila Kc167 cells
Knock-down reagent: long dsRNA against Drosophila genes, 250 ng dsRNA per well of a 384-well plate
Timing: 3 days of knock-down, then overnight serum-free starvation before stimulation
Challenge: bovine insulin at 387 nM for 10 minutes after 12 h without serum
Detection: 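In-cell antibody fluorescence for phospho-dAkt in each well over DNA-dye signal, with log2 residuals expressed as z-scores adjusted for cell count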
Active means: 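Hit in the insulin screen when the two-replicate mean z-score is more extreme than plus or minus 2.5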

| predicted target | reagent no. | Call |
| --- | --- | --- |
| RpL7A (GeneID 31588) | 1 | inactive |
| ng2 (GeneID 31298) | 1 | inactive |
| CG7634 (GeneID 40394) | 1 | inactive |
| sing (GeneID 32644) | 1 | inactive |
| eEF1gamma (GeneID 44791) | 1 | inactive |
| CG33521 (GeneID 3346141) | 1 | inactive |
| CG33521 (GeneID 3346141) | 2 | inactive |
| CG33521 (GeneID 3346141) | 3 | inactive |
| PsGEF (retired record) (GeneID 31225) | 1 | inactive |
| PsGEF (retired record) (GeneID 31225) | 2 | inactive |
| CG31373 (GeneID 318700) | 1 | inactive |
| knrl (GeneID 40285) | 1 | inactive |
| CG7140 (GeneID 40445) | 1 | inactive |
| CG15865 (GeneID 32641) | 1 | inactive |
| CG13562 (GeneID 37797) | 1 | inactive |
| CG8159 (GeneID 41040) | 1 | inactive |
| CG6362 (GeneID 37032) | 1 | inactive |
| Dpy-30L1 (GeneID 34480) | 1 | inactive |
| PolH (GeneID 40438) | 1 | inactive |
| ewg (GeneID 30975) | 1 | inactive |
| CG12402 (GeneID 41714) | 1 | inactive |
| PNPase (GeneID 43710) | 1 | inactive |
| ena (GeneID 37201) | 1 | inactive |
| ena (GeneID 37201) | 2 | inactive |
| CG43775 (GeneID 37863) | 1 | inactive |
| CG13511 (GeneID 37597) | 1 | inactive |
| ssp5 (GeneID 41465) | 1 | inactive |
| nub (GeneID 34669) | 1 | inactive |
| nub (GeneID 34669) | 2 | inactive |
| nub (GeneID 34669) | 3 | inactive |
| nub (GeneID 34669) | 4 | inactive |
| CG42535 (GeneID 8674023) | 1 | inactive |
| CadN (GeneID 35070) | 1 | inactive |
| Prim2 (GeneID 44915) | 1 | inactive |
| CG3287 (retired record) (GeneID 48441) | 1 | inactive |
| rl (GeneID 3354888) | 1 | inactive |
| rl (GeneID 3354888) | 2 | inactive |
| rl (GeneID 3354888) | 3 | inactive |

Entries listed so far whose gene name begins with R or r:
| predicted target | reagent no. | Call |
| --- | --- | --- |
| RpL7A (GeneID 31588) | 1 | inactive |
| rl (GeneID 3354888) | 1 | inactive |
| rl (GeneID 3354888) | 2 | inactive |
| rl (GeneID 3354888) | 3 | inactive |

Next results follow.
| predicted target | reagent no. | Call |
| --- | --- | --- |
| CG17824 (retired record) (GeneID 39361) | 1 | inactive |
| hppy (GeneID 37203) | 1 | inactive |
| hppy (GeneID 37203) | 2 | inactive |
| hppy (GeneID 37203) | 3 | inactive |
| CG42246 (GeneID 7354415) | 1 | inactive |
| Gr59f (GeneID 37726) | 1 | inactive |
| CG4691 (GeneID 34856) | 1 | inactive |
| CG9281 (GeneID 32508) | 1 | inactive |
| CG31686 (retired record) (GeneID 318885) | 1 | inactive |
| Atg8b (GeneID 42132) | 1 | inactive |
| CG14506 (GeneID 43467) | 1 | inactive |
| CG1368 (GeneID 32361) | 1 | inactive |
| CG7997 (GeneID 36829) | 1 | inactive |
| Prp16 (GeneID 32373) | 1 | inactive |
| Prp16 (GeneID 32373) | 2 | inactive |
| CG9062 (GeneID 36199) | 1 | inactive |
| Cyp4ae1 (GeneID 31193) | 1 | inactive |
| CG17169 (GeneID 3354995) | 1 | inactive |
| CG15450 (GeneID 33064) | 1 | inactive |
| CG1927 (GeneID 38262) | 1 | inactive |
| CG12637 (GeneID 31996) | 1 | inactive |
| Rdl (GeneID 39054) | 1 | inactive |
| CAH6 (GeneID 43701) | 1 | inactive |
| CG14325 (GeneID 42123) | 1 | inactive |
| Tps1 (GeneID 33642) | 1 | inactive |
| CG30339 (GeneID 246549) | 1 | inactive |
| CG10516 (GeneID 39738) | 1 | inactive |
| Sec23 (GeneID 40694) | 1 | active |
| CG31819 (GeneID 260658) | 1 | inactive |
| CR33294 (GeneID 3772637) | 1 | inactive |
| Aladin (GeneID 31881) | 1 | inactive |
| mon2 (GeneID 326157) | 1 | inactive |
| tgo (GeneID 41084) | 1 | inactive |
| CG32024 (GeneID 317828) | 1 | inactive |
| EDTP (GeneID 36959) | 1 | inactive |
| CG7058 (GeneID 32873) | 1 | inactive |
| Mrp4 (GeneID 41387) | 1 | inactive |
| Nph (GeneID 43559) | 1 | inactive |
| CG14966 (GeneID 38390) | 1 | inactive |
| Or43a (GeneID 35644) | 1 | inactive |
| CG15891 + CG15892 | 1 | inactive |
| CG15891 + CG15892 | 2 | inactive |
| CG5078 (GeneID 40276) | 1 | inactive |
| CG15717 (GeneID 32262) | 1 | inactive |
| Obp73a (GeneID 2768955) | 1 | inactive |
| bun (GeneID 34665) | 1 | inactive |
| bun (GeneID 34665) | 2 | inactive |
| bun (GeneID 34665) | 3 | inactive |
| Hsp26 (GeneID 39075) | 1 | inactive |
| CG13614 (GeneID 42911) | 1 | inactive |
| Mettl3 (GeneID 42844) | 1 | inactive |
| Fum3 (GeneID 39281) | 1 | inactive |
| Gr58c (GeneID 37501) | 1 | inactive |
| CG12674 (GeneID 33384) | 1 | inactive |
| CG13084 (GeneID 35229) | 1 | inactive |
| CG43902 (GeneID 31948) | 1 | inactive |
| CG10283 (GeneID 35102) | 1 | inactive |
| cpa (GeneID 37387) | 1 | inactive |
| CG11686 (GeneID 50024) | 1 | inactive |
| Elovl7 (GeneID 40943) | 1 | inactive |
| Elovl7 (GeneID 40943) | 2 | inactive |
| CG10600 (GeneID 35142) | 1 | inactive |
| Dpp10 (GeneID 33923) | 1 | inactive |
| Dpp10 (GeneID 33923) | 2 | inactive |
| Atg101 (GeneID 32871) | 1 | inactive |
| RpL32 (GeneID 43573) | 1 | inactive |
| CG6769 (GeneID 32770) | 1 | inactive |
| CG13216 (GeneID 36181) | 1 | inactive |
| UBL3 (GeneID 32541) | 1 | inactive |
